Results taken from article doi:10.1101/2020.06.12.149062.
Results are given in words; binding and its absence hold for the method and conditions named. In cells and extracts the contact can be indirect. Some results given as binding are weak or reduced against the parent protein; the word gives no strength.

By UniProt entry, the sequences of proteins in these tests, tags left out. Residues count along the entry.
UniProt P01132, residues 29-1217: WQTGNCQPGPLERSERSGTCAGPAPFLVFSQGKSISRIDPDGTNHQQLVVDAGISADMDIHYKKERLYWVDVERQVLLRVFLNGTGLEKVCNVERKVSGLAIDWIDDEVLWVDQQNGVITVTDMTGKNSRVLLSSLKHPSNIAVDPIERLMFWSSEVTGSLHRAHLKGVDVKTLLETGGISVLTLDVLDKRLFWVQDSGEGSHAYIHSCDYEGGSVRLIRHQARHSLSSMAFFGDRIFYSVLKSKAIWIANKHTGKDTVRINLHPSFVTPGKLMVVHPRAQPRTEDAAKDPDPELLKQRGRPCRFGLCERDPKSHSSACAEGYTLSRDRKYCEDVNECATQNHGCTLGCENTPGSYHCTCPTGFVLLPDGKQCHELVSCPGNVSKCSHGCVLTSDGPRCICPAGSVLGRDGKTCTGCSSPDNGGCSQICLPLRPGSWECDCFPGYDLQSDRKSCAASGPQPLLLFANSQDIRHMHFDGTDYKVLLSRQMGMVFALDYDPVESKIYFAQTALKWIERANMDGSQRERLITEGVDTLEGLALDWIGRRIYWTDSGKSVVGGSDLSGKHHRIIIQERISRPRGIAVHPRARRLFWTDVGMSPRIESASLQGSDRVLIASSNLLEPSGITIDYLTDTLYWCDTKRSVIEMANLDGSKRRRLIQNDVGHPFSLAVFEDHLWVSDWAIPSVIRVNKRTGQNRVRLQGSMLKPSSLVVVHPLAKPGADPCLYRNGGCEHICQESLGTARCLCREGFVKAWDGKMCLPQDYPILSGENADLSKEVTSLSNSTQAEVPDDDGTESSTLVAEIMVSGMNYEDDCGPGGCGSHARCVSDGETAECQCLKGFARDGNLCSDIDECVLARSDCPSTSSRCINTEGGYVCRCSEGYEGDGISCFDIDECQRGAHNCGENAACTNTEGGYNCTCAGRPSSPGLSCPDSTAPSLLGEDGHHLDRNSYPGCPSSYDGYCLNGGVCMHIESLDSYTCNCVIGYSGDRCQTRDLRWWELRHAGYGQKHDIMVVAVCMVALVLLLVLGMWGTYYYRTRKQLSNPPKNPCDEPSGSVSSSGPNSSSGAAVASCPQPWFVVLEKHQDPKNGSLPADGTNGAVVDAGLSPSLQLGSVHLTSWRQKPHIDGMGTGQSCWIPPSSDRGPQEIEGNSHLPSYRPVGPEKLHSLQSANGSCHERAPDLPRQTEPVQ
UniProt P08592, residues 18-770: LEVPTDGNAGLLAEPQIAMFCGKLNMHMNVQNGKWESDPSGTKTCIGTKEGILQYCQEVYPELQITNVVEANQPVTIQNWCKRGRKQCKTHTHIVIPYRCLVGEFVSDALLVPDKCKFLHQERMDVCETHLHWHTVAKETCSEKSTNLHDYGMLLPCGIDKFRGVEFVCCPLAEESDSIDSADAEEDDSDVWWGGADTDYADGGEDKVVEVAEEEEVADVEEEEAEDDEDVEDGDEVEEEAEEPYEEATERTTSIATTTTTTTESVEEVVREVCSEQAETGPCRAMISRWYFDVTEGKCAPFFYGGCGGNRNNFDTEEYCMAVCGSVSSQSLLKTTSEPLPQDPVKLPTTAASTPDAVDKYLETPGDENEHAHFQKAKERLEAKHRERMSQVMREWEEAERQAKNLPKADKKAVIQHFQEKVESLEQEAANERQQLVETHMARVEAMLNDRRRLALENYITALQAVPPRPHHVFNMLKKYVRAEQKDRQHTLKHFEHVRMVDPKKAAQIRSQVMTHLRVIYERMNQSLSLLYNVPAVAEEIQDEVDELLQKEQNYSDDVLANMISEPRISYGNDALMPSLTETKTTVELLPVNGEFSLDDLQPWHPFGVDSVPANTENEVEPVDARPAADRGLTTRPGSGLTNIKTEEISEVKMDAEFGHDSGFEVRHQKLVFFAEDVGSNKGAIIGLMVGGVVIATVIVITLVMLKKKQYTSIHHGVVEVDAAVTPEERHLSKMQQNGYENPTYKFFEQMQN
UniProt P12023, residues 18-770: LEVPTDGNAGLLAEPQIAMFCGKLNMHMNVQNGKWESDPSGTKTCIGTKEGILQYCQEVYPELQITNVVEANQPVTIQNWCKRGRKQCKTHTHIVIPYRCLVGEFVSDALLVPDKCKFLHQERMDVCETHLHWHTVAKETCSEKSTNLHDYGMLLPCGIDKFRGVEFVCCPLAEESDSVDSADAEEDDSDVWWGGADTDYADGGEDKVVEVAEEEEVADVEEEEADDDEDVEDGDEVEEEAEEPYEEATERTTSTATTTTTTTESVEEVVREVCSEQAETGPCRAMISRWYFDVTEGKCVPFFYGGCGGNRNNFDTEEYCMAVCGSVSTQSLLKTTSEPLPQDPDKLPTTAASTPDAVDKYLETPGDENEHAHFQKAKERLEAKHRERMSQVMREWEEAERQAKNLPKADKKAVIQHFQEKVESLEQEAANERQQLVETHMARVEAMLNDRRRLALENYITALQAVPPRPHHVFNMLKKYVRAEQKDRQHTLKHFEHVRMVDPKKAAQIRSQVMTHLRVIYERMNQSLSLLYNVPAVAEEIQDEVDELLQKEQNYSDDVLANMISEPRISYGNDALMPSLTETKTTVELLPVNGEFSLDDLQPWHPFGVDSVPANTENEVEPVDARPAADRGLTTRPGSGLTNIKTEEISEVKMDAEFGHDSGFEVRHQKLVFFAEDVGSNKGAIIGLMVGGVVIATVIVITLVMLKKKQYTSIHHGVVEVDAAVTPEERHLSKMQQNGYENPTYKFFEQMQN
UniProt P07522, residues 22-1133: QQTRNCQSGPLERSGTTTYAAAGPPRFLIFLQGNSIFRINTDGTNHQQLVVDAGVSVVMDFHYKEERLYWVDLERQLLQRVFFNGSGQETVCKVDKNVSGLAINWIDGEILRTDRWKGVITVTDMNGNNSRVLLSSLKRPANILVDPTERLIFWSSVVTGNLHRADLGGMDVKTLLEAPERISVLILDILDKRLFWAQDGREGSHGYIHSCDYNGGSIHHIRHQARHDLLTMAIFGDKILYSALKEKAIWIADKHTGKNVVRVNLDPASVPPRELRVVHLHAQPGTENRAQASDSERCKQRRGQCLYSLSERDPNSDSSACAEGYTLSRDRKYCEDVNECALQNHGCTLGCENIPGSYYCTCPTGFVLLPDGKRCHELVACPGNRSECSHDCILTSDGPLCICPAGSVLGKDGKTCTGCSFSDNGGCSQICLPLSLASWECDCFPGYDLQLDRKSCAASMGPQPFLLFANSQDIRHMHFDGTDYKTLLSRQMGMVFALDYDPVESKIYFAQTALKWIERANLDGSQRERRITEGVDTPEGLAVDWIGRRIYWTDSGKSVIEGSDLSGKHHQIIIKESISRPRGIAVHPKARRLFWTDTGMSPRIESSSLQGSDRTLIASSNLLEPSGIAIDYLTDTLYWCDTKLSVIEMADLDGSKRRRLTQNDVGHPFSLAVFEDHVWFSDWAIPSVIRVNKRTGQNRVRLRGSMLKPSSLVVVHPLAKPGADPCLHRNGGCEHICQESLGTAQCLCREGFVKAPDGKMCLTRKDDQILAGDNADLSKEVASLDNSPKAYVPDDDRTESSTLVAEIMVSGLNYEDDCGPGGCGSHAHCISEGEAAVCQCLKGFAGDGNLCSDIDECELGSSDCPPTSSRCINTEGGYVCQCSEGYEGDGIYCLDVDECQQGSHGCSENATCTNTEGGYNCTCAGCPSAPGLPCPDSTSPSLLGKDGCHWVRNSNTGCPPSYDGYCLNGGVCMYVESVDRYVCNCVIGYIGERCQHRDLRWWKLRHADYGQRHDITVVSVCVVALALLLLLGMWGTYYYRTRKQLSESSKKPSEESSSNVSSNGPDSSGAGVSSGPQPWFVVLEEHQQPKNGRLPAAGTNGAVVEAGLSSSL
UniProt Q99075, residues 20-208: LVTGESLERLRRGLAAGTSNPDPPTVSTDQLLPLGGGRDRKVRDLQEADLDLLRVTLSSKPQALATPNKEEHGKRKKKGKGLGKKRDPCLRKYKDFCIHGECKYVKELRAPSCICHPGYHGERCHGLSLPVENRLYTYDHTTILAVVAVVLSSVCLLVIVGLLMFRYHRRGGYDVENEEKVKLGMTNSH
UniProt P01133, residues 23-1207: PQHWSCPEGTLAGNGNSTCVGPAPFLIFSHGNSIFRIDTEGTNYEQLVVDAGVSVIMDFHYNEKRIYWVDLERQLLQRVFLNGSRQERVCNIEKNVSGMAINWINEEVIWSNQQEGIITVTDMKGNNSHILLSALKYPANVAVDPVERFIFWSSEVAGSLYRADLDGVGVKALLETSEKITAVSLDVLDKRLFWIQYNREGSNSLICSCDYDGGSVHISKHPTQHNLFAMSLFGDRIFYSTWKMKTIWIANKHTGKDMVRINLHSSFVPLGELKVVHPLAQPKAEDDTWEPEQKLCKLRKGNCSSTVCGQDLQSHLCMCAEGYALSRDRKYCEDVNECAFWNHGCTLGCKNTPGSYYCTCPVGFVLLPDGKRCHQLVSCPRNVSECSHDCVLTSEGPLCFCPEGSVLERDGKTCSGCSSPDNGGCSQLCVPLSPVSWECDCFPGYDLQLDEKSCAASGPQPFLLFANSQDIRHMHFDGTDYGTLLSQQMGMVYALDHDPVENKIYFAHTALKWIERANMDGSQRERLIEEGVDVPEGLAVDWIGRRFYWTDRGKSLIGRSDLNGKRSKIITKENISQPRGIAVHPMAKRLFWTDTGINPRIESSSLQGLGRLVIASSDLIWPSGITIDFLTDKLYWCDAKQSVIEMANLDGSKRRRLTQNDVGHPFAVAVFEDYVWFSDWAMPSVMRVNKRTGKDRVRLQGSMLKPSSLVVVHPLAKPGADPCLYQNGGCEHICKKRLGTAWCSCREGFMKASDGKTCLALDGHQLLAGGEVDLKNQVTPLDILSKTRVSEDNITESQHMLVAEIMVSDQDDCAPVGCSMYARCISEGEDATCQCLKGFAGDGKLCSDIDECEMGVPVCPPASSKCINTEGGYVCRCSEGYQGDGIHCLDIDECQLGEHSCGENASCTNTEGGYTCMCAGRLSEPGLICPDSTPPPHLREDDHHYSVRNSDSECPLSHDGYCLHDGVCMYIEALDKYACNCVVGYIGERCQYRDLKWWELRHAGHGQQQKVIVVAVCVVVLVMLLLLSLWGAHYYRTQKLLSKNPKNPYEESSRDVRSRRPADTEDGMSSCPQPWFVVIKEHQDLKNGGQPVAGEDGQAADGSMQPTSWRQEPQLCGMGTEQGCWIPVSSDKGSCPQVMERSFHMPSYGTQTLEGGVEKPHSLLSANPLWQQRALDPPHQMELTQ

Legend:
Assay in all cases: co-IP
[1] = target: endogenous pro-EGF (mouse cortex) (mouse (endogenous in cortex)) (UniProt P01132)
[2] = target: endogenous APP (rat cortex) (rat (endogenous in cortex)) (UniProt P08592)
[3] = target: human APP isoform 695 fused to GFP (APP695-GFP) (human) (UniProt P05067)
[4] = target: endogenous APP (mouse cortex) (mouse (endogenous in cortex)) (UniProt P12023)

Question: “endogenous APP (mouse cortex) (from UniProt P12023 18-770)” was tested. Which binding [1] did it give?
Answer: binds

Question: For “endogenous pro-EGF (rat cortex) (from UniProt P07522 22-1133)”, which binding [2] is on record?
Answer: binds

Question: For “endogenous pro-HB-EGF (HeLa cells) (from UniProt Q99075 20-208)”, which binding [3] is on record?
Answer: binds weakly

Question: For “endogenous pro-EGF (mouse cortex) (from UniProt P01132 29-1217)”, which binding [4] is on record?
Answer: binds

Question: How did the binding [3] turn out when “endogenous pro-EGF (HeLa cells) (from UniProt P01133 23-1207)” was run?
Answer: binds
